Results are given in words; binding and its absence hold for the method and conditions named. For part of these data: A result given as binding can be weak or reduced; the word gives no strength. Blank lines part the entries; values can stand above or below the binder they belong to.
What was measured:
HB-EGF [1] = assay: ELISA (summary of FIG. 2)
EGF [2] = assay: ELISA (summary of FIG. 2)
HB-EGF [3] = assay: direct binding ELISA (table column BINDING: HB EGF)
EGF [4] = assay: direct binding ELISA (table column BINDING: EGF)
Murine AR (mouse) = assay: direct binding ELISA (table column BINDING: Murine AR)
[5] = target: Cyno AR (cynomolgus monkey); assay: direct binding ELISA (table column BINDING: Cyno AR)

binding (HB-EGF [1]): no binding
binding (EGF [2]): no binding
binding (HB-EGF [3]): no binding
binding (EGF [4]): no binding
binding (Murine AR (mouse)): binds
binding [5]: binds
B1: PAR34 (murine anti-amphiregulin monoclonal antibody) (antibody, mouse IgG2b, V domains shown)
VH: EIQLQQSGPELVKPGASVKVSCKASGYAFTNYNMYWVKQSHGKSLEWIGYIDPYYGDPGYSQKFKGKATLTVDKSSSTAYMHLNSLTSEDSAVYYCARRGNFPYYFDYWGQGTTLTVSS
VL: DIKMTQSPSSMYASLGERVTITCKASQDINSYLSWFQQKPGKSPKTLIYRANRLVDGVPSRFSGSGSGQDYSLTISSLEYEDMGIYYCLQYDEFPYTFGGGTKLEIK

binding (HB-EGF [1]): no binding
binding (EGF [2]): no binding
binding (HB-EGF [3]): no binding
binding (EGF [4]): no binding
binding (Murine AR (mouse)): no binding
binding [5]: binds
B2: PAR80 (murine anti-amphiregulin monoclonal antibody) (antibody, mouse IgG2a, V domains shown)
VH: EVQLQQSGAELVRSGASVKLSCTASGFNIKDYYIHWVKQRPEQGLEWIGCIDPENGDTEYAPNFQGRATMTADTSSNTAYLQLSSLTSEDTAVYYCYGGTITFAYWGQGTLVTVSA
VL: QAVVTQESALTTSPGETVTLTCRSSTGAVTTSNSANWVQEKPDHLFTGLIGGTINRVPGVPARFSGSLIGDKAALTITGAQTEDEAIYFCALWYSNHWVFGGGTKLTVLG

Reference: patent US20040210040A1 (PDL BIOPHARMA, published 2004)
